## Library screening results

The chains behind the UniProt entries cited, without tags or fusion partners.
UniProt E9BF75, entry or part of it: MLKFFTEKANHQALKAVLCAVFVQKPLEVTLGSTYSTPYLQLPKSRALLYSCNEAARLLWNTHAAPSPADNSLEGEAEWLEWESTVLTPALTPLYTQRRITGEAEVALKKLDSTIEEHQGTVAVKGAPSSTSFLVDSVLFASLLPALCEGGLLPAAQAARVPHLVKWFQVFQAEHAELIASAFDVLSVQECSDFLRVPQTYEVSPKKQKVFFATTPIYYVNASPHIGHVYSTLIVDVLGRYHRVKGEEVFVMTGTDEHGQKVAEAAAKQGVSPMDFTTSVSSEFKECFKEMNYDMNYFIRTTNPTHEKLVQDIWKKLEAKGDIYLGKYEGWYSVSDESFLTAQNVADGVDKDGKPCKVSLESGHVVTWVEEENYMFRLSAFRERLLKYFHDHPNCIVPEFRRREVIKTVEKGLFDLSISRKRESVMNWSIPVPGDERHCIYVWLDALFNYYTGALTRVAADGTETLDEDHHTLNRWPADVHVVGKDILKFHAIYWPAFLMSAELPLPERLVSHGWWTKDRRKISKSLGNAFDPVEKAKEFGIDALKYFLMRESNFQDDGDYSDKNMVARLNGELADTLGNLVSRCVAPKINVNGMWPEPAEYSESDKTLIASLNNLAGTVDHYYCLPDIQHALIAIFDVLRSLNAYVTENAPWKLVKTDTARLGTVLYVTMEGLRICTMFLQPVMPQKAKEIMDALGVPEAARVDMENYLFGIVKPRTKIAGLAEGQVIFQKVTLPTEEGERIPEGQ

Mtb heat-shock: 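Assay on Mycobacterium tuberculosis, filed only as a heat shock assay from Cornell; the read-out is not stated. The concentration is filed as 10 mM, unlikely as a test dose, so the dose is not known. Direction is inferred from retests: higher values go with stronger inhibition. Of about 69,000 compounds tested this way, about 930 (1.4%) reached 50% or more in at least one test.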
LdMetRS: 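Primary screen of methionyl-tRNA synthetase; the read-out is not stated. Target: Methionyl-tRNA synthetase (putative), Leishmania donovani (UniProt E9BF75). The test concentration is not given. The values are filed as inhibition. Of about 68,000 compounds tested this way, about 24 (0.035%) reached 50% or more in at least one test.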
Mtb growth Cornell: 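Whole-cell assay for inhibitors of Mycobacterium tuberculosis growth, labelled Cornell in the record; the read-out is not stated. The concentration is filed as 10 mM, unlikely as a test dose, so the dose is not known. The record gives no direction; compounds strong in two other growth screens of this library score well above the rest, so higher reads as stronger inhibition. Of about 53,000 compounds tested this way, about 900 (1.7%) reached 50% or more in at least one test.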

All values are in %. The record does not define 0% and 100%; most values in the screen are far below 50% and negative numbers occur (in some assays of this library far below -100). This is an unselected part of the compounds tested.

For O=C(NCC1CC1)[C@@H]1CCO[C@@H]2CCN(CCc3ccccc3)C[C@H]21 the result was LdMetRS: 8.609%.
For COCC1CN(C(=O)c2cccc(C)n2)Cc2nccn2C1.O=C(O)C(F)(F)F (stereo unspecified) the result was Mtb heat-shock: -2.248%; Mtb growth Cornell: -10.53%.
For CC(C)c1nc(CN2CCN(CC(O)c3ccccc3)CC2)no1 (stereo unspecified) the result was Mtb heat-shock: -2.292%; LdMetRS: 15.19%; Mtb growth Cornell: 9.265%.
For NC(=O)NC(CC(=O)NCCc1cccc(F)c1)c1ccccc1 (stereo unspecified) the result was Mtb heat-shock: 10.67%; LdMetRS: 13.19%; Mtb growth Cornell: -4.198%.
For Cc1cnc(N2CCC3(CC2)CN(Cc2cccs2)CCO3)nc1 the result was LdMetRS: 4.396%.
For c1cc(CNCc2cccc3c2OCCO3)cc(Cn2cncn2)c1 the result was Mtb heat-shock: -1.057%; LdMetRS: 20.16%; Mtb growth Cornell: 39.84%.
For CC1c2ncc(Cn3cncn3)n2CCN1C(=O)c1ccsc1 (stereo unspecified) the result was Mtb heat-shock: -11.94%; LdMetRS: 12.33%; Mtb growth Cornell: 37.65%.
For CCN(C)c1ccc(CNC(=O)c2ccc(NC(N)=O)cc2)cc1F the result was Mtb heat-shock: 9.924%; LdMetRS: 20.77%; Mtb growth Cornell: 12.58%.
For CCCNC(=O)C(C)Nc1ccc(COCC)cc1 (stereo unspecified) the result was Mtb heat-shock: 20.87%; LdMetRS: 8.71%; Mtb growth Cornell: -6.041%.
For CCOCCOC(C)C(=O)Nc1nccn1Cc1ccccc1 (stereo unspecified) the result was Mtb heat-shock: 28.47%; LdMetRS: 13.07%; Mtb growth Cornell: 4.045%.
For Cc1nnsc1C(=O)N1C[C@H]2CC[C@@H]1CN(c1cnccn1)C2 the result was LdMetRS: 10.47%.
For CC(C)c1ccc(CN2CCC3(CCCN(c4nncs4)C3)C2)cc1 (stereo unspecified) the result was LdMetRS: 16.73%.
For CC(C)c1nc2cc(NC(=O)Cn3ccc(=O)[nH]c3=O)ccc2o1 the result was Mtb heat-shock: 8.023%; LdMetRS: 10.65%.
For Cc1cnc(C(NC(=O)NCC2(CO)CC2)C2CC2)s1 (stereo unspecified) the result was Mtb heat-shock: 17.62%; LdMetRS: -20.99%.
For O=C(O)C(F)(F)F.[H][C@@]12COC[C@]1(CNC(=O)c1ccco1)CN(CC1CCOCC1)C2 the result was Mtb heat-shock: -5.322%; Mtb growth Cornell: -38.03%.
For Cc1cc(CNCC2Cn3nnc(C)c3CO2)oc1C (stereo unspecified) the result was LdMetRS: 7.958%.
For CC(=O)N1N=C(c2cccs2)OC1C(=O)Nc1ccccc1 (stereo unspecified) the result was Mtb heat-shock: 6.727%; LdMetRS: 1.389%; Mtb growth Cornell: 19.84%.
For CC(C)O[C@@H]1CC[C@H]2[C@H]1OCCN2C(=O)c1nn(C)c2ccccc12 the result was LdMetRS: 9.29%.
For COCCO[C@H]1CCN(Cc2cccs2)[C@H]1Cc1cccnc1 the result was LdMetRS: 10.04%.
For COc1cc(N2CCC3(CC2)CCN(c2cccnc2)C3=O)ncn1.O=C(O)C(F)(F)F the result was Mtb heat-shock: 0.3889%; Mtb growth Cornell: 4.028%.
For CN1CCCC(CCC(=O)N2CCc3onc(C(=O)N(C)C)c3C2)C1 (stereo unspecified) the result was Mtb heat-shock: -11.7%; LdMetRS: 8.939%; Mtb growth Cornell: -6.376%.
For Cc1cccc(-n2c(C)cc(C(=O)N3CCn4c(C)nnc4C3)c2C)c1 the result was Mtb heat-shock: -23.78%; LdMetRS: 19.69%; Mtb growth Cornell: 29.28%.
For CC(C)Nc1nc2c(cc1C(=O)N(C)C)CCNCC2 the result was LdMetRS: 16.32%.
For Cc1nn(CCO)c(C)c1CNC1CCC(C)(C)c2ccccc21 (stereo unspecified) the result was Mtb heat-shock: -2.354%; LdMetRS: 13.66%; Mtb growth Cornell: 15.18%.
For CCn1c(N)nc2cc(C(=O)N3CCN(c4nccs4)CC3)cnc21 the result was Mtb heat-shock: 22.88%; LdMetRS: 9.926%; Mtb growth Cornell: -42.07%.
For O=C(NC[C@H]1OC[C@@H](NC2COC2)[C@@H]1O)c1ccccc1 the result was Mtb heat-shock: -9.151%; LdMetRS: 8.475%; Mtb growth Cornell: -2.885%.
For Cc1nc(C(C)C)sc1C(=O)N(C)Cc1nc(-c2ccccn2)no1 the result was Mtb heat-shock: 3.81%; LdMetRS: 6.164%; Mtb growth Cornell: -19.8%.
For NC(=O)C(NC(=O)c1cc(Br)c[nH]1)c1ccccc1 (stereo unspecified) the result was Mtb heat-shock: -5.963%; LdMetRS: 7.754%.
For c1cncc(OC[C@]23COC[C@H]2CN(Cc2nccs2)C3)c1 the result was LdMetRS: 14.37%.
For CC(Oc1ccc(F)c(F)c1)C(=O)N(CC(N)=O)C1CCCC1 (stereo unspecified) the result was Mtb heat-shock: -9.8%; LdMetRS: 7.092%; Mtb growth Cornell: -16.25%.
For O=C(c1ccccn1)N1CCCC(c2nccn2Cc2ccncc2)C1 (stereo unspecified) the result was Mtb heat-shock: -12.52%; LdMetRS: 5.419%; Mtb growth Cornell: 0.04571%.
For CN(Cc1ccco1)C1CCC12CCN(C(=O)C1CCOCC1)CC2 (stereo unspecified) the result was LdMetRS: 3.889%.
For Cc1cc(C)c2[nH]c(C)c(CC(=O)N(C)CCN(C)C)c2c1 the result was LdMetRS: 18.6%.
For COc1ccc2c(ccn2CCC(=O)NCc2ccc(C(=O)O)cc2)c1 the result was Mtb heat-shock: 14.46%; LdMetRS: 11.11%; Mtb growth Cornell: 20.04%.

Once more, the final 3:

{"compound": "CN(Cc1ccco1)C1CCC12CCN(C(=O)C1CCOCC1)CC2", "stereo": "stereo unspecified", "LdMetRS": 3.889}
{"compound": "Cc1cc(C)c2[nH]c(C)c(CC(=O)N(C)CCN(C)C)c2c1", "LdMetRS": 18.6}
{"compound": "COc1ccc2c(ccn2CCC(=O)NCc2ccc(C(=O)O)cc2)c1", "Mtb heat-shock": 14.46, "LdMetRS": 11.11, "Mtb growth Cornell": 20.04}

Source: ChEMBL document CHEMBL3988442, “University of Dundee, Small-Polar-MMV Screening Library” (2021).